These are yes or no findings as the source states them, for the method shown. Some entries that bind do so weakly or less than the wild type.
Columns and labels:
[1] = target: GST-HCMV-AD1 fusion protein (human cytomegalovirus (HCMV)) (UniProt P06473); assay: ELISA of culture supernatants of 293T cells transfected with the H and L chain cDNAs (plate antigen taken to be GST fused HCMV-AD1 as in the screening)
[2] = target: GST-HCMV-AD1 fusion protein (human cytomegalovirus (HCMV)) (UniProt P06473); assay: ELISA after Protein A purification (plate antigen taken to be GST fused HCMV-AD1 as in the screening)
[3] = target: HCMV glycoprotein B (gB) / HCMV-AD1 from HCMV (AD169 strain) (human cytomegalovirus (HCMV), AD169 strain) (UniProt P06473); assay: Western blot on lysate of HCMV AD169-infected HEL cells
[4] = target: HCMV glycoprotein B (gB) / HCMV-AD1 from HCMV (AD169 strain) (human cytomegalovirus (HCMV), AD169 strain) (UniProt P06473); assay: Western blot

Protein sequences, listed by entry. Tags and fused reporters are not part of them. Residues count along the entry.
HCMV glycoprotein B (gB) / HCMV-AD1 from HCMV (AD169 strain) (human cytomegalovirus (HCMV), AD169 strain) (P06473, residues 460-906): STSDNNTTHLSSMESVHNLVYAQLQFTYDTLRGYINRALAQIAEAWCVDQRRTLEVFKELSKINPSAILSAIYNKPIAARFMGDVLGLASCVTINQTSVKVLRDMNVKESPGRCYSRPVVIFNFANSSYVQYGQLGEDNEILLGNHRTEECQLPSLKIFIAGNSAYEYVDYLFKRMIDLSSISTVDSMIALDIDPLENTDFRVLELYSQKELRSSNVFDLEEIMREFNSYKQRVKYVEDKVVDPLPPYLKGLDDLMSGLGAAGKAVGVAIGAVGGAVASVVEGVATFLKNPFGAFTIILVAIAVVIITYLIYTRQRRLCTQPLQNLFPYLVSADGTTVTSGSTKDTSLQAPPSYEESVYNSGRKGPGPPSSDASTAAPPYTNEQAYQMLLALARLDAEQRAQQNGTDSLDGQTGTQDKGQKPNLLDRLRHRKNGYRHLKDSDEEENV
GST-HCMV-AD1 fusion protein (human cytomegalovirus (HCMV)) (P06473, residues 552-635): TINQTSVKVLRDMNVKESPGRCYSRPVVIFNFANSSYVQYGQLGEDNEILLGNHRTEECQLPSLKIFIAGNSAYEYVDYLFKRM

Measured: binding

B1: anti-HCMV antibody (G3D No. 9) (antibody, human IgG1, kappa, V domains shown)
VH: QVQLVESGGGMVQPGKSLRLSCAASGFTFSSYGMHWVRQAPGRGLEWVAIIWYDGDNTWYADSVKGRITISRDNSKNMLYLQMDSLRVEDTALYYCVRGGLGYFNGWDVDHWGQGTLVTVSS
VL: DVVMTQSPLSLPVTLGQPASISCRSSESLVYSDGNTYLNWFQQRPGQSPRRLISKVSNRDSGVPDRFSGSGSGTDFTLKISRVEAEDVGVYYCMQGSHWPPYTFGQGTKLEIKR
notes: also called G3D No. 9 antibody; anti-HCMV monoclonal antibody
binds: all assays above
